This note sets out measurements from article PMC7768192.

Amino acid sequences for entries named in this document (tags omitted).
UniProt Q8NEG4: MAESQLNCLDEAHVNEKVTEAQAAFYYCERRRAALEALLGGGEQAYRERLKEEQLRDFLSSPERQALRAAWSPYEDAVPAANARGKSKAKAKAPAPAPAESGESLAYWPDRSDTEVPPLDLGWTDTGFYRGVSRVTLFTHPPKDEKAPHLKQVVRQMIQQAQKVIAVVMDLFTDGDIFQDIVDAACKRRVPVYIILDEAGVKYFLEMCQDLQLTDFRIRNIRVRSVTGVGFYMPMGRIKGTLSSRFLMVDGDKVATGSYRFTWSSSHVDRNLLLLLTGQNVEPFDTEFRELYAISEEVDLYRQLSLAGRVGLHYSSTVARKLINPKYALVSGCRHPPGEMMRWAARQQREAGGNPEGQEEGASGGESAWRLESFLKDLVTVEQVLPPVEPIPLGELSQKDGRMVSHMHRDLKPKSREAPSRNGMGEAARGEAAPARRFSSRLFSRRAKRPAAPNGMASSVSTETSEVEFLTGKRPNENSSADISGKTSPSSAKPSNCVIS
UniProt P48729: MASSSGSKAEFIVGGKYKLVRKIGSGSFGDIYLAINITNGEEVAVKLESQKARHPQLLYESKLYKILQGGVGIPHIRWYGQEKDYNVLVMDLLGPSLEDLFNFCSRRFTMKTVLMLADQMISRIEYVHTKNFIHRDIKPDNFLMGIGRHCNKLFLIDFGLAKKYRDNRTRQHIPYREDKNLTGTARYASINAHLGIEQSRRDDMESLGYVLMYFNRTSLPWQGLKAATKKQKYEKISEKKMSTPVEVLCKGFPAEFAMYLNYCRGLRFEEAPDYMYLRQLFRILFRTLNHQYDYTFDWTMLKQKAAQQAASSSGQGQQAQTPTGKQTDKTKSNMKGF
UniProt P49674: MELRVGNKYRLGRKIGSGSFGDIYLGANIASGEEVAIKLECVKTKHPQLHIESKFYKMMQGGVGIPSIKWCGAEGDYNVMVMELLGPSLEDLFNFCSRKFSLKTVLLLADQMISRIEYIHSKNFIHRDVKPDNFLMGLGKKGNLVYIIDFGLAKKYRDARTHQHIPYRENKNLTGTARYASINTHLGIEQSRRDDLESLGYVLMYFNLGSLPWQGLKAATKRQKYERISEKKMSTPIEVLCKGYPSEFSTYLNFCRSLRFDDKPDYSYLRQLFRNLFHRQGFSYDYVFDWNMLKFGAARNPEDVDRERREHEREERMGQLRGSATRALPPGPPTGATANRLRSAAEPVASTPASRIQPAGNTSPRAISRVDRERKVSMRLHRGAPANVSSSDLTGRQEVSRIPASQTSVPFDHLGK

For test [1], the target named is GFP-FAM83F (endogenous knock-in, ^GFP/GFPFAM83F) (human (endogenous in HCT116 and DLD-1)) (UniProt Q8NEG4). Briefly: co-IP; GFP-Trap agarose beads on extracts (1 mg protein) of HCT116 and DLD-1 GFP/GFP FAM83F knock-in cells, wild-type cells as control, 16 h at 4°C; Western blot for endogenous CK1α, CK1δ, CK1ε. Background: Immunoblotting shows a protein as a band on a membrane.

Test [2] concerns the target casein kinase 1α (human (endogenous in U2OS, HCT116 and DLD-1)) (UniProt P48729). Briefly: co-IP; anti-CK1α antibody (1 μg) and Protein G Sepharose on extracts (1 mg protein) of HCT116 and DLD-1 cells (wild-type, FAM83F^-/-, FAM83F^C497A knock-in), untreated or treated with L-CM or Wnt3A-CM for 6 h; Western blot for FAM83F and FAM83G.

These are yes or no findings as the source states them, for the method shown. In cells and extracts the contact can be indirect. Some entries that bind do so weakly or less than the wild type.

As for “CK1ε (from UniProt P49674 1-416) (enzyme)”, in test [1], the binding result is reported as “no binding”. Take “FAM83F (endogenous) (from UniProt Q8NEG4 1-500)”: the binding entry in test [2] is “binds”.
